Measurements as given in PMC6908673, “Tuning the in vitro sensing and signaling properties of cyanobacterial PII protein by mutation of key residues” (Scientific Reports, 2019).
No constants are given. Whether binding was seen depends on the method and setting. Some results given as binding are weak or reduced against the parent protein; the word gives no strength. Tags and fused reporters may be left off the sequences shown.

The chains behind the UniProt entries cited, without tags or fusion partners. Where a name states a change or a piece, a line headed by the entry shows the natural chain unless it says otherwise.
UniProt P0A3F4: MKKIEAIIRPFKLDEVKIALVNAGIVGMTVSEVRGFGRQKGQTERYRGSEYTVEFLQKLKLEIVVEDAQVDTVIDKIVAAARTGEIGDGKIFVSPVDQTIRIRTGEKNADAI

Key:
[1] = molecular target: T1, PipX (PII-interacting protein X), His6-tagged (UniProt Q7X386); experiment: SPR; indirect assay: 500 nM His6-PipX pre-incubated with Strep-tagged PII, mixture injected on Ni-NTA chip; with ADP (3 mM in Fig. 4, 1 mM in Fig. 5); 25 °C, HBS buffer; both purified
T1 sequence: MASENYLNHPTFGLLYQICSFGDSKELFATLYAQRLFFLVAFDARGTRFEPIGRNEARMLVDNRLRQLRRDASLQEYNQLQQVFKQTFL

[2] = molecular target: T2, SeNAGK, N-acetyl-L-glutamate kinase from S. elongatus PCC7942, His6-tagged (S. elongatus PCC7942) (UniProt Q6V1L5); experiment: SPR; His6-NAGK immobilised on Ni2+-loaded NTA chip (FC2), PII injected over FC1 and FC2; BIAcore X, 25 °C, HBS buffer (10 mM Hepes pH 7.5, 150 mM NaCl, 1 mM MgCl2, 0.005% Nonidet P40); both purified
T2 sequence: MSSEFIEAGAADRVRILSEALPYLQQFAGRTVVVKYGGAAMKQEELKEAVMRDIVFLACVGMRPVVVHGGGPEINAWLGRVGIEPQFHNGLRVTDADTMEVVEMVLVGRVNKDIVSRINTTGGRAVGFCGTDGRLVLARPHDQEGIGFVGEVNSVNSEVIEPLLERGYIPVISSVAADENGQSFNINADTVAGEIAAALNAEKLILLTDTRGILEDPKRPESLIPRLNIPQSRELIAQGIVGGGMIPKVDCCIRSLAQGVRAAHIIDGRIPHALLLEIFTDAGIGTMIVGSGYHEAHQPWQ

[3] = molecular target: T2, SeNAGK, N-acetyl-L-glutamate kinase from S. elongatus PCC7942, His6-tagged (S. elongatus PCC7942); experiment: SEC-MALS; PII mixed with NAGK (molar ratio 3:1 PII trimers to NAGK hexamers) 10 min at room temperature; Superose 6 Increase 10/300 GL; 100 mM Tris-HCl pH 7.8, 300 mM NaCl, 2 mM MgCl2, 2% glycerol; eluted fractions checked by SDS-PAGE; both purified
[4] = molecular target: T1, PipX (PII-interacting protein X), His6-tagged; experiment: condition: only in absence of the effector molecules (500 nM PII, 500 nM His6-PipX); SPR; indirect assay: 500 nM His6-PipX pre-incubated with Strep-tagged PII (500 nM in Fig. 4, 100 nM in Fig. 5), mixture injected on Ni-NTA chip; without effector molecules; 25 °C, HBS buffer; both purified
[5] = molecular target: T1, PipX (PII-interacting protein X), His6-tagged; experiment: SPR; indirect assay: 500 nM His6-PipX pre-incubated with Strep-tagged PII (500 nM in Fig. 4, 100 nM in Fig. 5), mixture injected on Ni-NTA chip; without effector molecules; 25 °C, HBS buffer; both purified
[6] = molecular target: T1, PipX (PII-interacting protein X), His6-tagged; experiment: SPR; indirect assay: 500 nM His6-PipX pre-incubated with Strep-tagged PII, mixture injected on Ni-NTA chip; with 1 mM ATP; 25 °C, HBS buffer; both purified

binding [1]	binding [2]	binding [3]	binding [4]	binding [5]	binding [6]	Substance
binds	no binding	no binding	no binding			SePII (K58N) variant, Strep-tagged (from UniProt P0A3F4 1-112)
binds	no binding	no binding		binds		SePII (K58N/L56K) variant, Strep-tagged (from UniProt P0A3F4 1-112)
binds				binds	binds	SePII (WT), PII signal-transduction protein from Synechococcus elongatus PCC 7942, Strep-tagged (from UniProt P0A3F4 1-112)
